Reference: patent publication US10888864B2, “Electrochemical metabolic activity detecting device” (The Governing Council of the University of Toronto, priority 2014, dated 2021)

Tested on: K. pneumoniae
Assay: time required for antibiotics to hinder metabolic activity (resazurin fluorescence)
Format: cell-based, Klebsiella pneumoniae
Settings: K. pneumoniae 1×10^5 cfu/μL, antibiotic 100 μg/mL, LB media, 1 mM resazurin, 37° C., FIG. 16
Experimental: In order to choose a suitable incubation period for the susceptibility test, the time required for the antibiotics to begin inhibiting bacterial metabolic activity was investigated. […] The increase in fluorescence induced by the conversion of resazurin by metabolically active bacteria was recorded.

O=C(O)c1cn(C2CC2)c2cc(N3CCNCC3)c(F)cc2c1=O [ciprofloxacin]
time until fluorescence signal (resazurin conversion) is suppressed: ≤ 30 min
